# Assay results reported in PubChem BioAssay AID1259354 (Paczesny and Yang Labs, IUPUI and University of Michigan, 2018).
# Protein sequences, listed by entry. Tags and fused reporters are not part of them. Lines headed by an entry give the natural chain unless they say otherwise; changes in a name come on top.
# UniProt Q01638: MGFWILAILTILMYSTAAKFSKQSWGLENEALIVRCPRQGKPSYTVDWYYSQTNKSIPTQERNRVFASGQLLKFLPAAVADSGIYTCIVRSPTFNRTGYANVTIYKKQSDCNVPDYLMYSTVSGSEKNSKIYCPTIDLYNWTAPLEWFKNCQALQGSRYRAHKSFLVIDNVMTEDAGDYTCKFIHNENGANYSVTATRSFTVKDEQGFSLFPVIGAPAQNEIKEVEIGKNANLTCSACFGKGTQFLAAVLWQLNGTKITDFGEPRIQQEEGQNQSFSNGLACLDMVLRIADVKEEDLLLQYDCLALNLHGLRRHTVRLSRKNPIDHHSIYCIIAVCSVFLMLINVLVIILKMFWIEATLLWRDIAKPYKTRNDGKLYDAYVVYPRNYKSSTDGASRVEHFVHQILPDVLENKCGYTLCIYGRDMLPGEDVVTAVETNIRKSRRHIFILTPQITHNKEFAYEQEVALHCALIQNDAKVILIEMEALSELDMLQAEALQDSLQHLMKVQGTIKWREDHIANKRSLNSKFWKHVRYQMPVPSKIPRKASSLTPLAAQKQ
# Hit rate of the full screen: of about 78,000 compounds, about 1,800 (2.3%) were called active. The inconclusive results got no clear call from the source; some entries with a clear call stand among them for comparison. No stated cut-off is given here; in the data, active means inhibition above about 30%; inconclusive means mostly about 10% to 28%; inactive means weaker than that.
# Biological target: Interleukin-1 receptor-like 1 (Homo sapiens) (UniProt Q01638)
# Assay: blocks human ST2 binding to IL-33, primary screen, biochemical, AlphaLISA (AID 1259354)
# Settings: AlphaLISA ST2-Fc/biotin-IL-33 interaction, 1 h; at 17 µM, active compounds read high
row,Structure (SMILES),inhibition
1,COC(=NS(=O)(=O)c1ccc(Cl)cc1)c1ccccc1,inactive
2,CCc1ccc(NC(Nc2ccc(CC)cc2)=C(S(=O)(=O)CC)S(=O)(=O)CC)cc1,inconclusive: 16%
3,Cc1c(C(=O)NC(C)c2ccccc2)oc2ccc(S(=O)(=O)N3CCCCCC3)cc12 (stereo not drawn),inactive
4,COCc1nc(CN2CC(c3cccnc3)C2)no1,inactive
5,CCC(Sc1nc2c(c(=O)n1-c1ccc(Br)cc1)SCC2)C(=O)OC (stereo not drawn),inconclusive: 23%
6,Cc1nc2cc(-c3ccccc3)nn2c(C)c1CCC(=O)NC(C)c1ccc2c(c1)OCCO2 (stereo not drawn),inconclusive: 21%
7,Cn1ncc(N=Cc2ccccc2)c1C(=O)Nc1cccc(Cl)c1,inconclusive: 18%
8,COc1cc(C(=O)N2CCCC3(CC2)CN(C)C(=O)O3)ccn1 (stereo not drawn),inconclusive: 10%
9,COc1ccccc1NC(=O)C(=O)N1CCCCC1,inactive
10,Cn1cnnc1Sc1ccc(CN2CCOc3ccc(C4=Cc5ccccc5C4)cc3C2)o1,inconclusive: 10%
11,N#Cc1ccccc1N=C1N=C(N)c2ccccc21,inconclusive: 21%
12,CC(C)c1nccc(C(=O)N2[C@@H]3CC[C@H]2CNC(=O)C3)n1,inconclusive: 16%
13,CN(C(=O)CCc1nnc(C2(c3ccc(Cl)cc3)CCC2)o1)C1CCOC1 (stereo not drawn),inactive
14,O=S(=O)(c1ccc(Cl)cc1)c1nc(/C=C/c2ccccc2)oc1N1CCOCC1,active: 31%
15,C/C(=C\c1nsc(Nc2ccc(Cl)c(Cl)c2)n1)NC(C)C,inactive
16,CCOc1ccc(C2(C)CC(=O)NC(=O)N2)cc1 (stereo not drawn),inconclusive: 10%
17,CC1=C(C(N)=O)C(c2cccc(Br)c2)n2nc(SCc3ccccc3F)nc2N1 (stereo not drawn),inactive
18,CC(=O)c1ccc(N=Cc2cc(Br)cc(Cl)c2O)cc1,inconclusive: 12%
19,COc1cc(C=Nc2c(-c3ccc(O)c(OC)c3)nc3ccccn23)ccc1O,inconclusive: 24%
20,COc1cc2c(cc1OC)C(=O)C(C)(C)N(Cc1ccccc1)C2,inactive
21,OCc1ccccc1-n1ncc2cccnc21,inactive

# Structures above that contain two or more sulfur atoms, in the order listed:
row,Structure (SMILES),inhibition
2,CCc1ccc(NC(Nc2ccc(CC)cc2)=C(S(=O)(=O)CC)S(=O)(=O)CC)cc1,inconclusive: 16%
5,CCC(Sc1nc2c(c(=O)n1-c1ccc(Br)cc1)SCC2)C(=O)OC (stereo not drawn),inconclusive: 23%

# Two compounds drawn at random from the list so far, as already listed:
row,Structure (SMILES),inhibition
18,CC(=O)c1ccc(N=Cc2cc(Br)cc(Cl)c2O)cc1,inconclusive: 12%
15,C/C(=C\c1nsc(Nc2ccc(Cl)c(Cl)c2)n1)NC(C)C,inactive

# The list goes on:

row,Structure (SMILES),inhibition
1,O=C(CSc1ccccc1)N1CCOCC1,inconclusive: 12%
2,COc1ccc(OC)c(NC(=O)c2ccccc2Br)c1,inactive
3,Cn1nccc1C(=O)N1CCOC(Cc2ccc(F)cc2)C1 (stereo not drawn),inactive
4,O=C(CSc1nc2c([nH]c3ccccc32)c(=O)n1-c1ccc(Cl)cc1)NCC1CCCO1 (stereo not drawn),inconclusive: 23%
5,CC(=O)Nc1ccc(S(=O)(=O)Nc2ccc(C(C)C)cc2)cc1,inactive
6,Cc1ccc(Nc2nc(-c3ccc(F)cc3)cs2)cc1C,inactive
7,CC(NS(=O)(=O)c1ccc(Br)cc1)C(c1cccs1)N1CCN(C)CC1 (stereo not drawn),inconclusive: 16%
8,COC(=O)[C@H](NC(=O)[C@@H]1C[C@@H](NC(=O)c2ccncc2)CCN1S(=O)(=O)c1ccc(OC)cc1)C(C)C,inconclusive: 18%
9,Cc1ccc(N2C(=O)S/C(=C\c3ccc(O)cc3)C2=O)cc1,inactive
10,Cc1cc(C)cc(CN2CC(c3ccccn3)C2)c1,inactive
11,COc1cccc(Nc2nc(-c3cccnc3)nc3ccccc23)c1,inactive
12,O=C(Nc1ccc(Cl)c(-c2nc3cc(Cl)ccc3o2)c1)c1ccc([N+](=O)[O-])o1,inconclusive: 13%
13,O=C(NCCCN1CCCCC1)C1CC(=O)N(C2CCCCCC2)C1 (stereo not drawn),inactive
14,Cc1onc(-c2ccccc2Cl)c1C(=O)N1CCOCC1,inconclusive: 18%
15,COC(=O)c1ccc(C(=O)N2CCCC(CO)(Cc3ccc(F)cc3F)C2)nc1 (stereo not drawn),inactive
16,CC(=O)NC(=O)c1cc2cc(Br)ccc2oc1=Nc1ccc(C#N)cc1,active: 32%
17,COCCn1c(CNC(=O)C2CC2)nc2cccnc21,inconclusive: 10%
18,Nc1nc2n(n1)C(c1ccccc1)CC(c1ccc(Cl)cc1)N2 (stereo not drawn),inconclusive: 21%
19,COc1ccc2cc3cc(C(=O)Nc4ccccc4F)sc3nc2c1,active: 41%
20,CC(O)C(O)(Cc1ccc(O)cc1)C(=O)OCc1ccc(OC2OC(CO)C(O)C(O)C2O)cc1 (stereo not drawn),inconclusive: 12%
21,CC1=C(C(=O)Nc2ccccn2)C(c2ccc(Cl)c([N+](=O)[O-])c2)C2=C(CC(C)(C)CC2=O)N1 (stereo not drawn),inactive

row,Structure (SMILES),inhibition
1,Cc1ncccc1C(=O)N1Cc2cnn(CCO)c2C1,inconclusive: 11%
2,O=C(NCc1ccc(Cl)cc1)C1CSC(c2cccs2)=N1 (stereo not drawn),inactive
3,Cc1nc2ccccc2c2c1C(=O)N(C1CCCCC1)C2=O,inconclusive: 26%
4,CCn1c(CC2CCN(C(=O)CCc3cnccn3)CC2)nn(C)c1=O,inactive
5,CCC1(CC)CN(C(=O)CC2C(=O)NCCN2Cc2ccoc2)CCO1 (stereo not drawn),inconclusive: 12%
6,S=C(S)OC1C[C@H]2C[C@@H]1[C@H]1CCC[C@@H]21 (stereo partly drawn),inactive
7,CN(CCC#N)C(=O)c1cc2c(=O)n3ccccc3nc2n1C,inconclusive: 12%
8,CC1(C)CC(=O)C(C(C2=C(O)CC(C)(C)CC2=O)c2cccc(O)c2O)C(=O)C1 (stereo not drawn),inconclusive: 10%
9,Cc1c(Cl)cccc1NC(=O)C(c1ccccc1)c1ccccc1,inactive
10,COc1ccc(CN2CCN(c3ccccn3)CC2)c(OC)c1,inconclusive: 16%
11,CCOc1ccc(CC(=O)Nc2cc(N3CCCS3(=O)=O)ccc2OC)cc1,inactive
12,COC(=O)[C@@H]1Cc2ncn(Cc3ccc(OC)cc3)c2CN1Cc1ccc(NC(C)=O)cc1,inconclusive: 18%
13,O=C1COC[C@H]([C@H](O)c2ccc(NC(=O)c3cccc(F)c3)cc2)N1,inactive
14,c1csc(-c2noc(CN3CCN(Cc4ccc5c(c4)OCO5)CC3)n2)c1,inactive
15,COc1ccc(S(=O)(=O)N2C[C@@H]3C[C@H](C2)c2c(NC(=O)C4CCCCC4)ccc(=O)n2C3)cc1,inconclusive: 18%
16,COc1ccc(Nc2c(-c3ccccn3)nc3ccc(Cl)cn23)cc1,inconclusive: 10%
17,CN(C)c1ncccc1CNC(=O)C1(c2cccs2)CC1(C)C (stereo not drawn),inconclusive: 20%
18,Fc1ccc(N2COc3ccc(Cl)cc3C2)cc1,inconclusive: 17%
19,O=C(Nc1ccc(Br)cn1)c1cccnc1,inactive
20,CC(C)(C)c1ccc(S(=O)(=O)N2CCSCC2)cc1,inconclusive: 12%
21,O=C(CCCn1c2ccccc2c(=O)c2ccccc21)Nc1ccc(F)cc1F,inactive
